# Results from PMC2815545.
# Chains of the proteins cited; added tags and fusions are not shown.
# UniProt P05549: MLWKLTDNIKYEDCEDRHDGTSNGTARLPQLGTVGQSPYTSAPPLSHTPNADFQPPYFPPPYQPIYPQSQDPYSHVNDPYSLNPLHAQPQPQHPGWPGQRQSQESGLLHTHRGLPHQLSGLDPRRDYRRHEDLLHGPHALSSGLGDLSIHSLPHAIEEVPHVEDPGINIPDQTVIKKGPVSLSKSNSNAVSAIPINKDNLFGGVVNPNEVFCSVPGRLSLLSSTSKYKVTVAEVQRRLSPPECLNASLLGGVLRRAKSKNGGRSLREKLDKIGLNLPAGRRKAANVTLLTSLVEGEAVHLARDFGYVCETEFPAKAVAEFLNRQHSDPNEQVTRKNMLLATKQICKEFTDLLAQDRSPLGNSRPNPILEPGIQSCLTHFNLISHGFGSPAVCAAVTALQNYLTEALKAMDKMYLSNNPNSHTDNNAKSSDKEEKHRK
# UniProt P12956: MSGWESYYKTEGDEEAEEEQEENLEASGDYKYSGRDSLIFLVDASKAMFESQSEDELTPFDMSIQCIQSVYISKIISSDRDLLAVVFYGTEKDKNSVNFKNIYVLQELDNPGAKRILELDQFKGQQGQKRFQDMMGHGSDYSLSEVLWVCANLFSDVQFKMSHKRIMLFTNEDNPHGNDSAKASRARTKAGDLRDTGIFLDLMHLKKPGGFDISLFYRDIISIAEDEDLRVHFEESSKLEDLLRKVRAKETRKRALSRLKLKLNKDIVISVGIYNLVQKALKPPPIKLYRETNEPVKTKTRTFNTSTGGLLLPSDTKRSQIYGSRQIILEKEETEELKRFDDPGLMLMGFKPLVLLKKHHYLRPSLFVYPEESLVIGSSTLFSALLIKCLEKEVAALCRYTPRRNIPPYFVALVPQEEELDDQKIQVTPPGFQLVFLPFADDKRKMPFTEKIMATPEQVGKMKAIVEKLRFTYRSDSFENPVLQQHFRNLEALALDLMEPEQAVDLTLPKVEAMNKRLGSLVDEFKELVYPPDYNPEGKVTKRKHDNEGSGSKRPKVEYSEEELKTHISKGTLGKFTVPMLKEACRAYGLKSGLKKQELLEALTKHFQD
# UniProt P13010: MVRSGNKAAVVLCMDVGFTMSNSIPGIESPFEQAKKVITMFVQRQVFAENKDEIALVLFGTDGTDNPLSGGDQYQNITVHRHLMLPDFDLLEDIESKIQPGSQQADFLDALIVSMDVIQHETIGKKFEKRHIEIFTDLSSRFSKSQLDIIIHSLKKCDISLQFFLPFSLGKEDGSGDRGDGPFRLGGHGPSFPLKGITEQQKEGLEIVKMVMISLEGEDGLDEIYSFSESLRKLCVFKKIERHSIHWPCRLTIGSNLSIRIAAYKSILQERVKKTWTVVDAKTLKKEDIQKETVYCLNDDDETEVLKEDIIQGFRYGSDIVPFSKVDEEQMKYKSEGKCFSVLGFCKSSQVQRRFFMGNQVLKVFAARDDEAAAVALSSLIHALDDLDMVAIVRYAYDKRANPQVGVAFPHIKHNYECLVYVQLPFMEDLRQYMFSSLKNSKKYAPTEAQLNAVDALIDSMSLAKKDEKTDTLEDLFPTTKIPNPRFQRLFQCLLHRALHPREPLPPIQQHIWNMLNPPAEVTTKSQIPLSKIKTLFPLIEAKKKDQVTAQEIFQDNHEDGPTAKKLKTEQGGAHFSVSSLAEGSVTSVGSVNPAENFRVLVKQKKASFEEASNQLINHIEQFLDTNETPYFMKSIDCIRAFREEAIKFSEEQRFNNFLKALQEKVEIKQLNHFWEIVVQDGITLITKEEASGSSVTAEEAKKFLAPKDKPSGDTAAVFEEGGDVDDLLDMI
# These are yes or no findings as the source states them, for the method shown. Binding seen in cells or lysates may run through a third protein. These calls come from enrichment with a bait or labelling near it, and not all partners need be listed.
# Target: Glutathione-Serine-Transferase/AP-2α (GST-AP2) hybrid protein (UniProt P05549)
# Test: affinity purification with mass spectrometry; GST-AP2 or GST on MagneGST beads incubated 50 min at RT in PBS with 100 μg BT474 nuclear proteins; washed with PBS/0,01% Tween; eluted with 8 M urea, two-dimensional gel electrophoresis, silver stain, spots identified by LC-MS/MS; only the target purified
row,binding,Substance
1,binds,Ku70 (from UniProt P12956 1-609)
2,binds,Ku80 (from UniProt P13010 1-732)
